The experiment concerns the target Flag-tagged RECQL5 (UniProt O94762). Description: affinity purification with mass spectrometry; Flag-RECQL5 purification, subsequent high-sensitivity mass spectroscopy analysis (Supplemental Fig. S1B, Table S2).

Amino acid sequences for entries named in this document (tags omitted).
UniProt O94762: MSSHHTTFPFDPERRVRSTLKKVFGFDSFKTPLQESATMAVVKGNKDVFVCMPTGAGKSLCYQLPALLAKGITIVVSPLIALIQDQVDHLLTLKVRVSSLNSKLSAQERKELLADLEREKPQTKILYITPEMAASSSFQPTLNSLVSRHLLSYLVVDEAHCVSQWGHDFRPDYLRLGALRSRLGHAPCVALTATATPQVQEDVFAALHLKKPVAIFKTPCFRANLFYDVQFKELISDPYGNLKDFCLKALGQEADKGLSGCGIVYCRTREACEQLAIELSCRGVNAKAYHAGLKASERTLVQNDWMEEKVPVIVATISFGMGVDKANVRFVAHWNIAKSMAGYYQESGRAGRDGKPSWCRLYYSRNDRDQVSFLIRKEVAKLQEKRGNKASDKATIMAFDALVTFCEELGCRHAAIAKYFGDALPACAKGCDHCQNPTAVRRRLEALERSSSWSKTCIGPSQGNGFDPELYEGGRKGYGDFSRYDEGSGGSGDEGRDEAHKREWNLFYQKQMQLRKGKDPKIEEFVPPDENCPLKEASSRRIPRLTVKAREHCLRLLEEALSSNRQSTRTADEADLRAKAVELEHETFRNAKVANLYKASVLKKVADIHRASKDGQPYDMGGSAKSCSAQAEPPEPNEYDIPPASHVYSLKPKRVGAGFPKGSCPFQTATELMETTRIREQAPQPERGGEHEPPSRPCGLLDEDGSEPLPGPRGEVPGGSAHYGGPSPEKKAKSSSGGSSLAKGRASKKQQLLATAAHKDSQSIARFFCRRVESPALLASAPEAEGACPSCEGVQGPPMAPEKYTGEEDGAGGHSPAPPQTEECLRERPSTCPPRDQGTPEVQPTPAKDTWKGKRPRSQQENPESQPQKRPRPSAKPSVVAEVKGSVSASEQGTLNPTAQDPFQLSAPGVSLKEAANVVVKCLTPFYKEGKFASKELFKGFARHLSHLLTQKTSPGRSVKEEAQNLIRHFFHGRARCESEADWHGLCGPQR
UniProt Q6ZW49: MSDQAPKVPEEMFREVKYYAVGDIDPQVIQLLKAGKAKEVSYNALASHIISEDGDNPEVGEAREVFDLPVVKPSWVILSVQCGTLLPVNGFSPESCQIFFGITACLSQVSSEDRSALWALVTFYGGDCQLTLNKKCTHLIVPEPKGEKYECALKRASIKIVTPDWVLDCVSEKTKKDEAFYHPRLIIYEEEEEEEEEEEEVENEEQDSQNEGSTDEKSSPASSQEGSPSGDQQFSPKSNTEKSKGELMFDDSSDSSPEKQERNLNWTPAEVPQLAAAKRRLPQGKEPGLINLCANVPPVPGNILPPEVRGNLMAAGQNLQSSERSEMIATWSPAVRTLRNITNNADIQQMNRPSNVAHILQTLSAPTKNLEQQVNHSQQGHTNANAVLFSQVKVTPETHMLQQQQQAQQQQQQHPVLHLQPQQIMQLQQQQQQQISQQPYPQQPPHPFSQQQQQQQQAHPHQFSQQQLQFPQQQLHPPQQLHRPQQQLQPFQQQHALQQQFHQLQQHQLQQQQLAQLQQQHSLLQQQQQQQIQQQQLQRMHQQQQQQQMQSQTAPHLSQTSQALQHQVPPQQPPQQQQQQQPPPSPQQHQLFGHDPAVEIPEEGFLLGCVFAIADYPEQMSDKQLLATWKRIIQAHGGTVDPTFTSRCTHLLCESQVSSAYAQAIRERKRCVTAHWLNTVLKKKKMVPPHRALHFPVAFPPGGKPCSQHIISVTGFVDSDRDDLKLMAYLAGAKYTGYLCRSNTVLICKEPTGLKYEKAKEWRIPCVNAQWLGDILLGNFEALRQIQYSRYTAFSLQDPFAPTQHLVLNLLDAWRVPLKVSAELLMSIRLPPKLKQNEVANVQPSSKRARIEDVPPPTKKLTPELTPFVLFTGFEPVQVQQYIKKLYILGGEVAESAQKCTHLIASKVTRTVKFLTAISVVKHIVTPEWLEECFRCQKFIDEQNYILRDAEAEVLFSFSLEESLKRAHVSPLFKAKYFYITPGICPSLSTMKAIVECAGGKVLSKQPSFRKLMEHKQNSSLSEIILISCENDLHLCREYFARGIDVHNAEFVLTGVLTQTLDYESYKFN

Results are given in words; binding and its absence hold for the method and conditions named. Binding seen in cells or lysates may run through a third protein. These calls come from enrichment with a bait or labelling near it, and not all partners need be listed.

Turning to PTIP (from UniProt Q6ZW49 1-1069), the binding entry was “binds”.

The record behind these values is article PMC4762426.
